The test system of this experiment is L1210 leukemia ip in BDF1 mice, survival T/C. The experiment in a line: NCI In Vivo Anticancer Drug Screen. Data for tumor model L1210 Leukemia (intraperitoneal) in B6D2F1 (BDF1) mice. The note with it: T/C endpoint: mean survival time, higher T/C = longer survival.
Setting [1] is: dose: 400.0 mg/kg/injection, schedule: Q04DX003 (ip), vehicle: saline with Tween-80.
The mark [2] stands for this setting: dose: 200.0 mg/kg/injection, schedule: Q04DX003 (ip), vehicle: saline.
Where [3] appears, read: dose: 400.0 mg/kg/injection, schedule: Q04DX003 (ip), vehicle: saline.
Setting [4] is: dose: 100.0 mg/kg/injection, schedule: Q04DX003 (ip), vehicle: saline.
Where [5] appears, read: dose: 400.0 mg/kg/injection, schedule: Q01DX009 (ip), vehicle: Klucel (hydroxypropylcellulose) (HPC).
Where [6] appears, read: dose: 50.0 mg/kg/injection, schedule: Q04DX002 (ip), vehicle: Klucel (hydroxypropylcellulose) (HPC).
The mark [7] stands for this setting: dose: 100.0 mg/kg/injection, schedule: Q04DX002 (ip), vehicle: Klucel (hydroxypropylcellulose) (HPC).
[8] abbreviates: dose: 400.0 mg/kg/injection, schedule: Q04DX002 (ip), vehicle: Klucel (hydroxypropylcellulose) (HPC).

The list shows only some results of the screen, not a fair sample: it is rich in T/C values a quarter to a half above the control, in often repeated tests (any T/C) and in doses without a T/C. Further doses and runs are listed elsewhere. T/C: endpoint of the treated group in % of that of the vehicle group. Some entries give survivors of the animals treated and no T/C: the source holds a T/C of zero for them, seemingly a mark for toxic or unscored doses. Some doses without a T/C left all or most animals alive at the check, yet need not have been tolerated: the source hardly ever lists a survival T/C far under the control, and the zero likely stands for such cases as well. Survivors were counted at the toxicity check, usually on the fifth day, unless a day is given; later deaths do not show. Schedules are NCI's codes, taken here to give the interval after Q, in days (D) or hours (H), and the number of doses after X. Some doses were run more than once; their values stand side by side, smallest first. Some schedules carry Z or #; the key to these is not given. Where survival is the endpoint, the PubChem record calls one and a half times the control and up active, and a quarter to a half above the control has no call in these data; cut-offs in other NCI protocols can differ. Some T/C values are followed by the survivors on the day toxicity was checked, most often the fifth; without a count, all were alive then.

As for `S=c1nc2[nH]c3ccccc3c2n[nH]1`, under setting [1], the survivor count is reported as 6 of 6.

As to `CC(C)(C)/C(=N\[N+](C)(C)C)c1ccccc1`, the survivor count under setting [2] is 2 of 6 and the survivor count under setting [3] was 0 of 6.

Turning to `CC1(C)N=C(N)N=C(N)N1c1ccc(CCC(=O)Nc2ccc(S(=O)(=O)F)cc2)cc1`, the T/C runs as follows: (dose: 20.0 mg/kg/injection, schedule: Q01DX009 (ip), vehicle: acetone) 140 % of control; (dose: 30.0 mg/kg/injection, schedule: Q01DX009 (ip), vehicle: acetone) 148 % of control; (dose: 100.0 mg/kg/injection, schedule: Q01DX009 (ip), vehicle: saline) 132 [5 of 6 alive] and 139 % of control; (dose: 150.0 mg/kg/injection, schedule: Q## X003 (ip), vehicle: saline) 136 % of control; (dose: 300.0 mg/kg/injection, schedule: Q## X003 (ip), vehicle: saline) 137 % of control. Besides, the survivor count was 4 of 6 (dose: 400.0 mg/kg/injection, schedule: Q01DX009 (ip), vehicle: saline); 6 of 6 (dose: 500.0 mg/kg/injection, schedule: Q01DX009 (ip), vehicle: saline); 1 of 6 (dose: 900.0 mg/kg/injection, schedule: Q## X003 (ip), vehicle: saline).

With `CC(=O)Nc1ncnn1C(C)=O`, the survivor count under setting [3] was 3 of 6.

Regarding `C1CCN2CC3CC(CN4CCCCC34)C2C1` (stereo unspecified), the survivor count reads like this: (dose: 80.0 mg/kg/injection, schedule: Q04DX003 (ip), vehicle: saline) 0 of 6; under setting [4], 0 of 6; under setting [2], 0 of 6; under setting [3], 0 of 6.

For the compound `O=C(Nc1cccc(O)c1)Nc1ccc(Cl)cc1[N+](=O)[O-]`, the survivor count under setting [5] is given as 2 of 6.

For `O=C(C#CC(=O)[O][Sn]([c]1ccccc1)([c]1ccccc1)[c]1ccccc1)[O][Sn]([c]1ccccc1)([c]1ccccc1)[c]1ccccc1`, the survivor count reads like this: (dose: 25.0 mg/kg/injection, schedule: Q01DX001 (ip), vehicle: Klucel (hydroxypropylcellulose) (HPC)) 2 of 6; (dose: 25.0 mg/kg/injection, schedule: Q04DX002 (ip), vehicle: Klucel (hydroxypropylcellulose) (HPC)) 0 of 3; under setting [6], 0 of 3; (dose: 55.0 mg/kg/injection, schedule: Q01DX001 (ip), vehicle: Klucel (hydroxypropylcellulose) (HPC)) 3 of 6; (dose: 80.0 mg/kg/injection, schedule: Q01DX001 (ip), vehicle: Klucel (hydroxypropylcellulose) (HPC)) 2 of 6; under setting [7], 0 of 3.

With `N=C(CN1CCCCC1)N1CCCCC1`, the survivor count was 0 of 3 (dose: 200.0 mg/kg/injection, schedule: Q04DX002 (ip), vehicle: saline) and 0 of 3 (dose: 400.0 mg/kg/injection, schedule: Q04DX002 (ip), vehicle: saline).

As for `CC(=O)NC1=C(Oc2ccc(C)cc2)C(=O)c2ccccc2C1=O`, under “dose: 300.0 mg/kg/injection, schedule: Q01DX001 (ip), vehicle: saline”, the survivor count was 0 of 6.

For `NNC(=O)CNc1ccc(F)cc1F`, the survivor count under setting [8] is recorded as 0 of 3.

For `c1ccc(CN2CCNCC2)cc1`, the survivor count was 2 of 6 under setting [4], 0 of 6 under setting [2] and 0 of 6 under setting [3].

As to `O=C(NCCNCc1ccccc1)c1ccccc1`, the survivor count is, setting by setting: (dose: 50.0 mg/kg/injection, schedule: Q01DX009 (ip), vehicle: water) 5 of 6; (dose: 100.0 mg/kg/injection, schedule: Q01DX009 (ip), vehicle: water) 4 of 6 and 5 of 6; (dose: 200.0 mg/kg/injection, schedule: Q01DX009 (ip), vehicle: water) 0 of 6; (dose: 200.0 mg/kg/injection, schedule: Q04DX003 (ip), vehicle: saline with Tween-80) 0 of 6; under setting [1], 0 of 6.

`C/C(=N\N=C(N)N)c1ccc(NC(N)=S)cc1`: the survivor count by setting is: (dose: 80.0 mg/kg/injection, schedule: Q01DX005 (ip), vehicle: saline) 0 of 6; (dose: 160.0 mg/kg/injection, schedule: Q01DX005 (ip), vehicle: saline) 0 of 6; (dose: 320.0 mg/kg/injection, schedule: Q01DX005 (ip), vehicle: saline) 0 of 6.

Take `O=C(CC(O)(C(F)(F)F)C(F)(F)F)c1cccc(S(=O)(=O)F)c1`: the survivor count under setting [1] is recorded as 5 of 6.

As to `O=S(=O)(O)c1ccc(S)cc1`, the survivor count was 0 of 6 (dose: 150.0 mg/kg/injection, schedule: Q01DX001 (ip), vehicle: other) and 0 of 6 (dose: 300.0 mg/kg/injection, schedule: Q01DX001 (ip), vehicle: other).

As for `CCCc1nc2ccccc2[nH]1`, under setting [1], the survivor count is 0 of 6.

For `CC/C(C)=N\NC(N)=S`, the survivor count is on record as 5 of 6 (dose: 25.0 mg/kg/injection, schedule: Q01DX009 (ip), vehicle: Klucel (hydroxypropylcellulose) (HPC)); 0 of 3 under setting [6]; 0 of 3 under setting [7]; 0 of 3 (dose: 200.0 mg/kg/injection, schedule: Q04DX002 (ip), vehicle: Klucel (hydroxypropylcellulose) (HPC)); 0 of 3 under setting [8].

On to `O=c1c(Cl)c(C(Cl)(Cl)Cl)[nH]c2ccc([N+](=O)[O-])cc12`, for which the survivor count (dose: 100.0 mg/kg/injection, schedule: Q01DX001 (ip), vehicle: saline with Tween-80) was 2 of 6.

In the case of `CC(C)(C)OC(=O)NNC(=O)c1ccc([N+](=O)[O-])cc1`, the survivor count (dose: 120.0 mg/kg/injection, schedule: Q01DX009 (ip), vehicle: Klucel (hydroxypropylcellulose) (HPC)) was 6 of 6; the survivor count (dose: 180.0 mg/kg/injection, schedule: Q01DX009 (ip), vehicle: Klucel (hydroxypropylcellulose) (HPC)) was 6 of 6; the survivor count (dose: 400.0 mg/kg/injection, schedule: Q01DX001 (ip), vehicle: other) is reported as 3 of 6.

Turning to `CCCCCCCc1nc(N)c(C(N)=O)[nH]1`, the survivor count is reported as 1 of 6 (dose: 200.0 mg/kg/injection, schedule: Q01DX001 (ip), vehicle: saline with Tween-80) and 0 of 6 (dose: 400.0 mg/kg/injection, schedule: Q01DX001 (ip), vehicle: saline with Tween-80).

As to `O=c1oc(-c2ccccc2)nc2c(Cl)ccc(Cl)c12`, for the setting “dose: 150.0 mg/kg/injection, schedule: Q01DX009 (ip), vehicle: Klucel (hydroxypropylcellulose) (HPC)”, the survivor count is given as 3 of 6.

On to `O=C(NCCCCN1CC1)C(=O)Nc1cccnc1`, for which the survivor count reads like this: (dose: 100.0 mg/kg/injection, schedule: Q04DX003 (ip), vehicle: Klucel (hydroxypropylcellulose) (HPC)) 1 of 6; (dose: 200.0 mg/kg/injection, schedule: Q04DX003 (ip), vehicle: Klucel (hydroxypropylcellulose) (HPC)) 0 of 6; (dose: 400.0 mg/kg/injection, schedule: Q04DX003 (ip), vehicle: Klucel (hydroxypropylcellulose) (HPC)) 0 of 6.

`CN=C(NC)c1ccc(NC(=O)c2cccc(C(=O)Nc3ccc(C(=NC)NC)cc3)c2)cc1`: the survivor count (dose: 120.0 mg/kg/injection, schedule: Q01DX Z (ip), vehicle: saline) is recorded as 1 of 6.

For `O=CC(O)C(O)C(OC1OC(CO)C(O)C(O)C1O)C(O)CO` (stereo unspecified) (tested in a mixture with another compound), the survivor count (dose: 400.0 mg/kg/injection, schedule: Q01DX009 (ip), vehicle: saline with Tween-80) is on record as 3 of 6.

For `CC(C)OC(=O)Oc1c(Cl)c(Cl)c(Cl)c(Cl)c1Cl`, under setting [5], the survivor count is 2 of 3.

In the case of `COC(=O)c1ncccc1C(=O)O`, the survivor count (dose: 200.0 mg/kg/injection, schedule: Q01DX009 (ip), vehicle: saline with Tween-80) was 3 of 6.

The values are drawn from PubChem BioAssay AID248 (DTP/NCI, 2004).
